PubChem BioAssay AID1224827 – NIAID | 2016

Assay: 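Retest primary hits on a TNF reporter with six siRNAs per gene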 (follow-up of hits)
Cell system: RAW264.7 G9 mouse macrophage reporter clone
Reagents: single siRNA against mouse genes, 100 nM siRNA
Duration: siRNA for 2 days, then LPS about 16 h
Challenge: bacterial lipopolysaccharide (LPS), 10 ng/ml, cells fixed after overnight (about 16 h) stimulation
Measurement: 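Imaged nuclear TNF reporter intensity, background removed, scaled per plate and to non-targeting control wells, as z-scores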
Reading the numbers: TNF reporter z-score, mean: higher = stronger Tnf promoter reporter signal
Active means: 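Active siRNA: replicate-mean z-score of 2 or more, or -2 or less; no calls for control wells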
The deposit covers about 3,800 reagents; below is a random part of them. About 2,200 of them (57%) count as active. 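Active means a strong reporter change in either direction; calls are per siRNA, not per gene; qiagen siRNAs gave weaker effects.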 The numbers tell different reagents against one gene apart. Not all columns of the deposit are shown.

Serpinc1 #1 → TNF reporter z-score, mean: 1.52; outcome: inactive
Serpinc1 #2 → TNF reporter z-score, mean: -0.652; outcome: inactive
Serpinc1 #3 → TNF reporter z-score, mean: -3.49; outcome: active
Serpinc1 #4 → TNF reporter z-score, mean: 4.13; outcome: active
Serpinc1 #5 → TNF reporter z-score, mean: 1.8; outcome: inactive
Serpinc1 #6 → TNF reporter z-score, mean: 1.03; outcome: inactive
Adamts7 #1 → TNF reporter z-score, mean: 1.1; outcome: inactive
Adamts7 #2 → TNF reporter z-score, mean: -0.321; outcome: inactive
Adamts7 #3 → TNF reporter z-score, mean: -4.43; outcome: active
Adamts7 #4 → TNF reporter z-score, mean: 6.23; outcome: active
Adamts7 #5 → TNF reporter z-score, mean: 2.72; outcome: active
Adamts7 #6 → TNF reporter z-score, mean: 1.38; outcome: inactive
Trav13-5 #1 → TNF reporter z-score, mean: 2.83; outcome: active
Trav13-5 #2 → TNF reporter z-score, mean: -1.34; outcome: inactive
Trav13-5 #3 → TNF reporter z-score, mean: -2.03; outcome: active
Trav13-5 #4 → TNF reporter z-score, mean: -0.294; outcome: inactive
Trav13-5 #5 → TNF reporter z-score, mean: -1.41; outcome: inactive
Trav13-5 #6 → TNF reporter z-score, mean: -0.541; outcome: inactive
Syk #1 → TNF reporter z-score, mean: -1.04; outcome: inactive
Syk #2 → TNF reporter z-score, mean: -2.23; outcome: active
Syk #3 → TNF reporter z-score, mean: -2.23; outcome: active
Syk #4 → TNF reporter z-score, mean: 0.0571; outcome: inactive
Syk #5 → TNF reporter z-score, mean: -1.73; outcome: inactive
Syk #6 → TNF reporter z-score, mean: -1.97; outcome: inactive
Sh2d1a #1 → TNF reporter z-score, mean: 4.71; outcome: active
Sh2d1a #2 → TNF reporter z-score, mean: 1.93; outcome: inactive
Sh2d1a #3 → TNF reporter z-score, mean: -3.1; outcome: active
Sh2d1a #4 → TNF reporter z-score, mean: -1.25; outcome: inactive
Sh2d1a #5 → TNF reporter z-score, mean: -1.6; outcome: inactive
Sh2d1a #6 → TNF reporter z-score, mean: -2.33; outcome: active
Atp1a3 #1 → TNF reporter z-score, mean: -2.74; outcome: active
Atp1a3 #2 → TNF reporter z-score, mean: -3.5; outcome: active
Atp1a3 #3 → TNF reporter z-score, mean: -4.34; outcome: active
Atp1a3 #4 → TNF reporter z-score, mean: -0.897; outcome: inactive
Atp1a3 #5 → TNF reporter z-score, mean: -1.65; outcome: inactive
Atp1a3 #6 → TNF reporter z-score, mean: -1.3; outcome: inactive
Slc25a28 #1 → TNF reporter z-score, mean: 0.161; outcome: inactive
Slc25a28 #2 → TNF reporter z-score, mean: -1.26; outcome: inactive
Slc25a28 #3 → TNF reporter z-score, mean: -4.8; outcome: active
Slc25a28 #4 → TNF reporter z-score, mean: 0.808; outcome: inactive
Slc25a28 #5 → TNF reporter z-score, mean: 0.535; outcome: inactive
Slc25a28 #6 → TNF reporter z-score, mean: -0.0877; outcome: inactive

Not a retest: an excerpt of the list.
Atp1a3 #6 → TNF reporter z-score, mean: -1.3; outcome: inactive
Slc25a28 #1 → TNF reporter z-score, mean: 0.161; outcome: inactive
Slc25a28 #2 → TNF reporter z-score, mean: -1.26; outcome: inactive
Slc25a28 #3 → TNF reporter z-score, mean: -4.8; outcome: active
